The list shows a part of the results. Small differences around the control level are noise.

Chains of the proteins cited; added tags and fusions are not shown. Lines headed by an entry give the natural chain unless they say otherwise; changes in a name come on top.
UniProt Q7Z478: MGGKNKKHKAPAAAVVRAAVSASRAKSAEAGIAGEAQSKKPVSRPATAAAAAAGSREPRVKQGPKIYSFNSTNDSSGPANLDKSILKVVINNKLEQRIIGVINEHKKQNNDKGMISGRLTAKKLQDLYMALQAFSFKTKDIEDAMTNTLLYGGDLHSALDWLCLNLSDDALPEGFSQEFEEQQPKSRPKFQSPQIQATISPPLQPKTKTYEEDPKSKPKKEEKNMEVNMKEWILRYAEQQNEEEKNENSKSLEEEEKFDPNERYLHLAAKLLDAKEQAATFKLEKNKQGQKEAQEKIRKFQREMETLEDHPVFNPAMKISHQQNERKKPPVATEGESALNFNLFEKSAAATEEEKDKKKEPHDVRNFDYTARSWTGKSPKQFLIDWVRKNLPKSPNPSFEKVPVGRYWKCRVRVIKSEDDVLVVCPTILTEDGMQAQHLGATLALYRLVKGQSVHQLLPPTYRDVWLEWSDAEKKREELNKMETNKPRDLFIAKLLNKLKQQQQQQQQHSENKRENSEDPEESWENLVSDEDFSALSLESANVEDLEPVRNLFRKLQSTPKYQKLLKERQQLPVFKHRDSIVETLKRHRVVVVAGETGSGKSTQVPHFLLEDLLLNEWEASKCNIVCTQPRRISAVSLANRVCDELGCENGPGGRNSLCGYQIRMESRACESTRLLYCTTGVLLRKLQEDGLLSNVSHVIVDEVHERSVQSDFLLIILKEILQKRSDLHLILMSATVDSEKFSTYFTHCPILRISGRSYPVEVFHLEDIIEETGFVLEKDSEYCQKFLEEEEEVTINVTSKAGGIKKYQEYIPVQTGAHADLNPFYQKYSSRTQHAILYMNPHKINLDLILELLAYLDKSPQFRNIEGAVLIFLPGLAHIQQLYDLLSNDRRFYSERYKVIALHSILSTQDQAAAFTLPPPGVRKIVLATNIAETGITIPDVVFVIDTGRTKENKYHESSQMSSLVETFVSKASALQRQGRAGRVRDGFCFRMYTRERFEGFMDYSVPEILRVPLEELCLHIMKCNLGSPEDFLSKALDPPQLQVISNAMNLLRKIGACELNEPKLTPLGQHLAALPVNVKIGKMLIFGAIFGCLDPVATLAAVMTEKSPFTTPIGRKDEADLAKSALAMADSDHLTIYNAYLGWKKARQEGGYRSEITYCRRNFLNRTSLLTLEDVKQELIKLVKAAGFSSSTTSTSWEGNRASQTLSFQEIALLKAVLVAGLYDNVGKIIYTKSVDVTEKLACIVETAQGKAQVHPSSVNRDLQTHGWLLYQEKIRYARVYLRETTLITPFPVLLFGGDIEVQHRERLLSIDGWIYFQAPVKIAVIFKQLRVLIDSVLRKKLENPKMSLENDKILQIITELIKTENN
UniProt Q6ZR08: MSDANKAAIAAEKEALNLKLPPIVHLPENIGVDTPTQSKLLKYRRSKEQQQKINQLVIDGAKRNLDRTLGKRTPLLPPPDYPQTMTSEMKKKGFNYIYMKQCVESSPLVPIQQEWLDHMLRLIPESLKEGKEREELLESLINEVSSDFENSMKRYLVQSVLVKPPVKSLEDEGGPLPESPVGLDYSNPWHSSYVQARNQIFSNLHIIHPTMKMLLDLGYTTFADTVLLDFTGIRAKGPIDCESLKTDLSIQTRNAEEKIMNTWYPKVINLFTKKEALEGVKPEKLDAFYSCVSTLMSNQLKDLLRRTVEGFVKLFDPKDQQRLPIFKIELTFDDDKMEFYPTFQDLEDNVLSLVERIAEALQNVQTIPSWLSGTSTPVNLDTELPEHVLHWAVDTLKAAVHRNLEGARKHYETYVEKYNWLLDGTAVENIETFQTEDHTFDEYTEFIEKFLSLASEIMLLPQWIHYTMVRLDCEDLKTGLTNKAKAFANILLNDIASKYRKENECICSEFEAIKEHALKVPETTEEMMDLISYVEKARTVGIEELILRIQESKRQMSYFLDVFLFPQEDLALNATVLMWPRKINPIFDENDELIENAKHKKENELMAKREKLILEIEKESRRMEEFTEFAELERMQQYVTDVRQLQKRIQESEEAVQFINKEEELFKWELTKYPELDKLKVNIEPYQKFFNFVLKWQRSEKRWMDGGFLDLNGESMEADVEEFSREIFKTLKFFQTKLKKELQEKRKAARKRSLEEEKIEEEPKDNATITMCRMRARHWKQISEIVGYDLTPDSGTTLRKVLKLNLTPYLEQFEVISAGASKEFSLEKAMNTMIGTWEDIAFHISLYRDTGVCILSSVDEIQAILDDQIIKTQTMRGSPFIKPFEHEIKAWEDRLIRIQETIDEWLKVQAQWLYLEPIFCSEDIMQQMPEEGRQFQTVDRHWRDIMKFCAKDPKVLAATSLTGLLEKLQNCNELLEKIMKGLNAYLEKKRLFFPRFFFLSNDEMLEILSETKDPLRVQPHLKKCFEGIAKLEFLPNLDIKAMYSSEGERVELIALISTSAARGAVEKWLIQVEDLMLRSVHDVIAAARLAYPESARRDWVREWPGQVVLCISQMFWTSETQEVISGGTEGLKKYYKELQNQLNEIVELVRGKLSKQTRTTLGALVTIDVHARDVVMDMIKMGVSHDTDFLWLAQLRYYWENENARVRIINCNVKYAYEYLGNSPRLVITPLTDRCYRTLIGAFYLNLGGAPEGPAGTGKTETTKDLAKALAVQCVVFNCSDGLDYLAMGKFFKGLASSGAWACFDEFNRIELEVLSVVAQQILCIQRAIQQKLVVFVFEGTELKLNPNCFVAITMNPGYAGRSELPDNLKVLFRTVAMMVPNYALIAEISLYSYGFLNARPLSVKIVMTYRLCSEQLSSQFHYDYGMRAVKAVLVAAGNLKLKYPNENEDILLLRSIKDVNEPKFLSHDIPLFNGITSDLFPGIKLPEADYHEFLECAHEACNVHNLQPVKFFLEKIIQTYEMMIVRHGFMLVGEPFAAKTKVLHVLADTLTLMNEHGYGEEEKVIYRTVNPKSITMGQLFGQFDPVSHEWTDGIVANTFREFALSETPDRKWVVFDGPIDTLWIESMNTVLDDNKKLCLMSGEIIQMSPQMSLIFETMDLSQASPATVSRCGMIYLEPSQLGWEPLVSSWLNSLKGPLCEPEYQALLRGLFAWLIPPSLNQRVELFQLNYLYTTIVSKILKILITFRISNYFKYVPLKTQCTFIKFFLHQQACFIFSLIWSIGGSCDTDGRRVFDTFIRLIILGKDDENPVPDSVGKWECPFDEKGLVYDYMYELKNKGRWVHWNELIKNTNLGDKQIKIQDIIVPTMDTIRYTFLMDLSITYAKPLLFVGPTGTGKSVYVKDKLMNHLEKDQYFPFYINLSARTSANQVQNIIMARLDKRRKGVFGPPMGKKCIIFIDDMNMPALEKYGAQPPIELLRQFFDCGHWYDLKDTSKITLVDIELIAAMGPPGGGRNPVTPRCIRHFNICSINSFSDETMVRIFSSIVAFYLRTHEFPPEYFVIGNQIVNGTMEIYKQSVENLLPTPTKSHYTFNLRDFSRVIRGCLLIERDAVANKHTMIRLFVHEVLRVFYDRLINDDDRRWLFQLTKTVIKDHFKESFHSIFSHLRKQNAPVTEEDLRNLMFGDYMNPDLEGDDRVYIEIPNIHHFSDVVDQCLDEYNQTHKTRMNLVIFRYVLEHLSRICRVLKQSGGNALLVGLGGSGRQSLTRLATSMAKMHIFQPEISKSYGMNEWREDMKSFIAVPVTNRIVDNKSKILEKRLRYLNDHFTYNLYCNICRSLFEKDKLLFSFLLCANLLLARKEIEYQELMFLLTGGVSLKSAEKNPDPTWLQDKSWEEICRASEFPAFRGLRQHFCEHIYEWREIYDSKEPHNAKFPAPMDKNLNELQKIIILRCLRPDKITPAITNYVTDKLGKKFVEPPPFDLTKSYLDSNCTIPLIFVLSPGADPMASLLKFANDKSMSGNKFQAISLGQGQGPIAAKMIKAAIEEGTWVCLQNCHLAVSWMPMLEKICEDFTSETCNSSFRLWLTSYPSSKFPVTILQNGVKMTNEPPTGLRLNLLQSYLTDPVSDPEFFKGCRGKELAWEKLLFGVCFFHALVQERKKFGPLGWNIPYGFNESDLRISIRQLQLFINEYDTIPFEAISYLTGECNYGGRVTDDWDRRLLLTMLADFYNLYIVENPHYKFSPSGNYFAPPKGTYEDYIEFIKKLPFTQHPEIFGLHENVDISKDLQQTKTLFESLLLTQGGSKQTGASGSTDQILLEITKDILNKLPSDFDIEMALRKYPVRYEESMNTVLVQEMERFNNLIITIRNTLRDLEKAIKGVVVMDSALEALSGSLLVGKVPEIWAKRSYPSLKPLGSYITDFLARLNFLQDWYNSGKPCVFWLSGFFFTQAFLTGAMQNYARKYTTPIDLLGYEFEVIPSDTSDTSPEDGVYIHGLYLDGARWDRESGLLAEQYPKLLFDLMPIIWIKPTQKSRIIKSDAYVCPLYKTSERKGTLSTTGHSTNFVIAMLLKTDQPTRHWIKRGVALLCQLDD
UniProt Q6ZU65, whole entry: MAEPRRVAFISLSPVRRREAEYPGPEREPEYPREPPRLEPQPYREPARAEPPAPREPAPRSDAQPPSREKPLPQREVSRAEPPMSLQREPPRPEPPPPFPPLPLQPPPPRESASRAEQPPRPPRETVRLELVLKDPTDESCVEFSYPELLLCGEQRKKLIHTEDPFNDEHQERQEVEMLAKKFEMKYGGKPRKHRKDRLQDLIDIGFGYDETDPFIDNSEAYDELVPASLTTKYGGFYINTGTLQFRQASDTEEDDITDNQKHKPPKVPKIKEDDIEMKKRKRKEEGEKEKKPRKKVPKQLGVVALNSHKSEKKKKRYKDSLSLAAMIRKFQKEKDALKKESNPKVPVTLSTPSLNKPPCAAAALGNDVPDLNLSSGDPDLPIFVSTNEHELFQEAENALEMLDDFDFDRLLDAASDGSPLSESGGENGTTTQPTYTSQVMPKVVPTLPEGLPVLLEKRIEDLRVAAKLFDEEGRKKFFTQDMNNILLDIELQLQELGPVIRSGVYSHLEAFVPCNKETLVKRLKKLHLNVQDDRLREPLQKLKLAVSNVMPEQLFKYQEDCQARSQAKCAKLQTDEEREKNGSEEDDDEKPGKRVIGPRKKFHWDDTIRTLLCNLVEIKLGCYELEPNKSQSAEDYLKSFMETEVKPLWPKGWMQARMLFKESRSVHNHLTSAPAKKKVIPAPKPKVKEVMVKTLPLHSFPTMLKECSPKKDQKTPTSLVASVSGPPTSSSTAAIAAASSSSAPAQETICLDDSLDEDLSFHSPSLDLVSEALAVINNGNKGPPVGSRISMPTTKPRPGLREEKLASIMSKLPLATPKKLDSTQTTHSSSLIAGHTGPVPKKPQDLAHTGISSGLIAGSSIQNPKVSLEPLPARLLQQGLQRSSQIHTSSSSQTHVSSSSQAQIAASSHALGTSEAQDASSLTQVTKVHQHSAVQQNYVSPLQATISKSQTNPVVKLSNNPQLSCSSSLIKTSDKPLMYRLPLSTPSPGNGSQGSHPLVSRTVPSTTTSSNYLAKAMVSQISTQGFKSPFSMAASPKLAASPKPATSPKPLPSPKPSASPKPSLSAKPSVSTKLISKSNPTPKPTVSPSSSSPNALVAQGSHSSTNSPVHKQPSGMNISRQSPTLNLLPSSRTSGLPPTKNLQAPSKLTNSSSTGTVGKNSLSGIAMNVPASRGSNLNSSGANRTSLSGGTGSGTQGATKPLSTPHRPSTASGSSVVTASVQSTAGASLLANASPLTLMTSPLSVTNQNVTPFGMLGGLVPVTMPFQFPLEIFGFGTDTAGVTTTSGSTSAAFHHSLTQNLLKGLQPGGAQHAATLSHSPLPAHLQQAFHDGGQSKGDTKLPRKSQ
UniProt Q7L099: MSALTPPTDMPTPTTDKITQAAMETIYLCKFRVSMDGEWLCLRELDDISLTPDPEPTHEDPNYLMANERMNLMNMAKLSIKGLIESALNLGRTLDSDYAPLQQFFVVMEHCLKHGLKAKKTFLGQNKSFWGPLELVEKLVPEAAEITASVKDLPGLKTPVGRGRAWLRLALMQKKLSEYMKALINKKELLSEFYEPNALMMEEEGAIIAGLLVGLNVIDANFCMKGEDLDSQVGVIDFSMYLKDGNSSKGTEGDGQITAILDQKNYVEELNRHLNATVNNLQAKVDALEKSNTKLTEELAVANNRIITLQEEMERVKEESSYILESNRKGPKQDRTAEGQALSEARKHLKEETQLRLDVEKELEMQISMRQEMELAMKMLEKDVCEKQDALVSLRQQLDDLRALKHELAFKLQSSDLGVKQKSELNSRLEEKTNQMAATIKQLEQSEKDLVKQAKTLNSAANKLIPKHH
UniProt Q7RTV5: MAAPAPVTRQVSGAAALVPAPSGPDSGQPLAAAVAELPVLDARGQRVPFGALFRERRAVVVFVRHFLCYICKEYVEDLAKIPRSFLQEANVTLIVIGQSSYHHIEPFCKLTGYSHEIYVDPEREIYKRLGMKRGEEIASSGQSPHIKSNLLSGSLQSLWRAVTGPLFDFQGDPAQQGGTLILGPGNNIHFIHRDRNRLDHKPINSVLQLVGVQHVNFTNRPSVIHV

Compound in the test: Cc1nc(Nc2ncc(C(=O)Nc3c(C)cccc3Cl)s2)cc(N2CCN(CCO)CC2)n1 [dasatinib]
Nature of the test: log2 fold change of tryptic peptide abundance, ligand vs vehicle (limited proteolysis) (log2 ratio); higher = more trypsin-susceptible (destabilized). As to conditions: ligand concentration: 5 uM; sample: K562 cleared lysate.
On to “DHX29 (peptide sequence: KLQEDGLLSNVSHVIVDEVHER, peptide start residue: 686) (UniProt Q7Z478)”, for which the log2 fold change was -0.576.

In the case of “GPAT4 (peptide sequence: NHQLYKPYTNGIIAK, peptide start residue: 69) (UniProt Q86UL3)”, the log2 fold change stood at 1.05.

With “MRPL55 (peptide sequence: MLAMPIDLDTLSPEERR, peptide start residue: 74) (UniProt Q7Z7F7)”, the log2 fold change worked out at 0.22.

On to “HDDC2 (peptide sequence: MAVMAMVIKDDR, peptide start residue: 53) (UniProt Q7Z4H3)”, for which the log2 fold change was 0.153.

As to “DNAH12 (peptide sequence: KENELMAK, peptide start residue: 601) (UniProt Q6ZR08)”, the log2 fold change was 0.0848.

In the case of “UBN2 (peptide sequence: QLGVVALNSHK, peptide start residue: 300) (UniProt Q6ZU65)”, the log2 fold change is -0.425.

Turning to “RUFY3 (peptide sequence: KTFLGQNK, peptide start residue: 120) (UniProt Q7L099)”, the log2 fold change is -0.421.

In the case of “UniProt Q7RTV5 (peptide sequence: RGEEIASSGQSPHIK, peptide start residue: 133)”, the log2 fold change came out at 0.324.

These data come from the supplement of paper PMC12819154, “High-throughput peptide-centric local stability assay extends protein–ligand identification to membrane proteins, tissues and bacteria” (Nature Structural & Molecular Biology, 2025).
